{"source": "PubChem BioAssay AID1508588 (Peter MacCallum Cancer Centre, 2020)", "aim": "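Which gene losses make BRAF-mutant melanoma cells more responsive to vemurafenib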 (primary screen)", "cell system": "human WM266.4 melanoma cells (BRAF V600 mutant)", "reagent": "siRNA pool against human genes, 40 nM", "duration": "96 h from transfection to read-out", "challenge": "vemurafenib 300 nM (about IC25), added 48 h after transfection, for 48 h; comparison arm got DMSO vehicle only", "detection": "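Ratios to non-targeting siRNA for cell gain, counted as DAPI nuclei after minus before drug and averaged over two replicates, and for absorbance-read medium lactate per cell; both binned into fold-change classes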", "direction": "cell gain with vemurafenib: higher = more cell gain than with non-targeting siRNA; lactate per cell with vemurafenib: higher = more lactate made per cell", "hit rule": "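a knock-down counts as enhancing when its fold-change classes with vehicle and with vemurafenib, taken together, show a stronger drug effect on cell gain or lactate per cell; exact class pairs not stated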", "meaning of the calls": "active = enhances vemurafenib effect; inactive = no enhancement seen", "note": "Shown is an unselected part of about 18,000 reagents. 790 of all reagents (4.4%) count as active. 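Calls rest on a combination of fold-change classes in drug and vehicle arms, not all shown here.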"}
{"target": "ATP2B1 (ATPase plasma membrane Ca2+ transporting 1)", "cell gain with vemurafenib": 0.6, "lactate per cell with vemurafenib": 0.95, "Outcome": "inactive"}
{"target": "TRIM72 (tripartite motif containing 72)", "cell gain with vemurafenib": 0.53, "lactate per cell with vemurafenib": 0.8, "Outcome": "inactive"}
{"target": "C12orf57 (chromosome 12 open reading frame 57)", "cell gain with vemurafenib": 0.63, "lactate per cell with vemurafenib": 0.93, "Outcome": "inactive"}
{"target": "ALKBH4 (alkB homolog 4, lysine demethylase)", "cell gain with vemurafenib": 0.65, "lactate per cell with vemurafenib": 1.8, "Outcome": "inactive"}
{"target": "SLC35G3", "cell gain with vemurafenib": 0.46, "lactate per cell with vemurafenib": 0.8, "Outcome": "inactive"}
{"target": "UBXN2B (UBX domain protein 2B)", "cell gain with vemurafenib": 1.07, "lactate per cell with vemurafenib": 0.84, "Outcome": "inactive"}
{"target": "BARX1 (BARX homeobox 1)", "cell gain with vemurafenib": 0.46, "lactate per cell with vemurafenib": 2.15, "Outcome": "inactive"}
{"target": "LGSN (lengsin, lens protein with glutamine synthetase domain)", "cell gain with vemurafenib": 0.88, "lactate per cell with vemurafenib": 0.47, "Outcome": "active"}
{"target": "MYPOP (Myb related transcription factor, partner of profilin)", "cell gain with vemurafenib": 0.6, "lactate per cell with vemurafenib": 1.62, "Outcome": "inactive"}
{"target": "LSM10 (LSM10, U7 small nuclear RNA associated)", "cell gain with vemurafenib": 0.65, "lactate per cell with vemurafenib": 0.56, "Outcome": "inactive"}
{"target": "RLN3 (relaxin 3)", "cell gain with vemurafenib": 0.82, "lactate per cell with vemurafenib": 0.8, "Outcome": "inactive"}
{"target": "PPM1K (protein phosphatase, Mg2+/Mn2+ dependent 1K)", "cell gain with vemurafenib": 1.05, "lactate per cell with vemurafenib": 0.7, "Outcome": "inactive"}
{"target": "PBX3 (PBX homeobox 3)", "cell gain with vemurafenib": 0.82, "lactate per cell with vemurafenib": 1.01, "Outcome": "inactive"}
{"target": "SH3BGRL2 (SH3 domain binding glutamate rich protein like 2)", "cell gain with vemurafenib": 0.55, "lactate per cell with vemurafenib": 1.15, "Outcome": "inactive"}
{"target": "GPD1L (glycerol-3-phosphate dehydrogenase 1 like)", "cell gain with vemurafenib": 0.28, "lactate per cell with vemurafenib": 2.34, "Outcome": "inactive"}
{"target": "DGKD (diacylglycerol kinase delta)", "cell gain with vemurafenib": 0.73, "lactate per cell with vemurafenib": 0.52, "Outcome": "inactive"}
{"target": "FXR1 (FMR1 autosomal homolog 1)", "cell gain with vemurafenib": 0.65, "lactate per cell with vemurafenib": 0.92, "Outcome": "inactive"}
{"target": "GJC3 (gap junction protein gamma 3)", "cell gain with vemurafenib": 0.05, "lactate per cell with vemurafenib": 1.87, "Outcome": "inactive"}
{"target": "PHF21B (PHD finger protein 21B)", "cell gain with vemurafenib": 1.01, "lactate per cell with vemurafenib": 0.73, "Outcome": "inactive"}
{"target": "TNFAIP2 (TNF alpha induced protein 2)", "cell gain with vemurafenib": 0.91, "lactate per cell with vemurafenib": 1.32, "Outcome": "inactive"}
{"target": "CXCL5 (C-X-C motif chemokine ligand 5)", "cell gain with vemurafenib": 0.68, "lactate per cell with vemurafenib": 1.39, "Outcome": "inactive"}
{"target": "MSX2 (msh homeobox 2)", "cell gain with vemurafenib": 0.91, "lactate per cell with vemurafenib": 0.96, "Outcome": "inactive"}
{"target": "UPF2 (UPF2 regulator of nonsense mediated mRNA decay)", "cell gain with vemurafenib": 0.94, "lactate per cell with vemurafenib": 0.61, "Outcome": "inactive"}
{"target": "SCN10A (sodium voltage-gated channel alpha subunit 10)", "cell gain with vemurafenib": 0.53, "lactate per cell with vemurafenib": 1.11, "Outcome": "inactive"}
{"target": "SIK3 (SIK family kinase 3)", "cell gain with vemurafenib": 0.4, "lactate per cell with vemurafenib": 1.23, "Outcome": "inactive"}
{"target": "CDR2 (cerebellar degeneration related protein 2)", "cell gain with vemurafenib": 0.3, "lactate per cell with vemurafenib": 2.37, "Outcome": "inactive"}
{"target": "TRIM61 (tripartite motif containing 61)", "cell gain with vemurafenib": 0.4, "lactate per cell with vemurafenib": 0.69, "Outcome": "inactive"}
{"target": "MALSU1 (mitochondrial assembly of ribosomal large subunit 1)", "cell gain with vemurafenib": 0.28, "lactate per cell with vemurafenib": 0.81, "Outcome": "inactive"}
{"target": "ACTR6 (actin related protein 6)", "cell gain with vemurafenib": 0.62, "lactate per cell with vemurafenib": 0.94, "Outcome": "inactive"}
{"target": "UBP1 (upstream binding protein 1)", "cell gain with vemurafenib": 0.23, "lactate per cell with vemurafenib": 0.78, "Outcome": "inactive"}
{"target": "FAM167A (family with sequence similarity 167 member A)", "cell gain with vemurafenib": 0.6, "lactate per cell with vemurafenib": 1.37, "Outcome": "inactive"}
{"target": "CAMLG (calcium modulating ligand)", "cell gain with vemurafenib": 0.94, "lactate per cell with vemurafenib": 0.56, "Outcome": "inactive"}
{"target": "TICAM1 (TIR domain containing adaptor molecule 1)", "cell gain with vemurafenib": 1.1, "lactate per cell with vemurafenib": 0.92, "Outcome": "inactive"}
{"target": "BACE1 (beta-secretase 1)", "cell gain with vemurafenib": -0.09, "lactate per cell with vemurafenib": 1.1, "Outcome": "inactive"}
{"target": "GPR35 (G protein-coupled receptor 35)", "cell gain with vemurafenib": 0.51, "lactate per cell with vemurafenib": 1.15, "Outcome": "inactive"}
{"target": "ZDHHC16 (zDHHC palmitoyltransferase 16)", "cell gain with vemurafenib": 0.41, "lactate per cell with vemurafenib": 1.58, "Outcome": "inactive"}
{"target": "SLC35D2", "cell gain with vemurafenib": 0.42, "lactate per cell with vemurafenib": 1.38, "Outcome": "inactive"}
{"target": "PSME1 (proteasome activator subunit 1)", "cell gain with vemurafenib": 0.83, "lactate per cell with vemurafenib": 1.1, "Outcome": "inactive"}
{"target": "MCTS1 (MCTS1 re-initiation and release factor)", "cell gain with vemurafenib": 0.53, "lactate per cell with vemurafenib": 0.41, "Outcome": "inactive"}
{"target": "SV2A (synaptic vesicle glycoprotein 2A)", "cell gain with vemurafenib": 0.92, "lactate per cell with vemurafenib": 0.48, "Outcome": "active"}
{"target": "ACTA1 (actin alpha 1, skeletal muscle)", "cell gain with vemurafenib": 1.42, "lactate per cell with vemurafenib": 0.54, "Outcome": "inactive"}
{"target": "TAS1R2 (taste 1 receptor member 2)", "cell gain with vemurafenib": 0.47, "lactate per cell with vemurafenib": 0.52, "Outcome": "inactive"}
{"target": "NINJ1 (ninjurin 1)", "cell gain with vemurafenib": 0.24, "lactate per cell with vemurafenib": 1.09, "Outcome": "inactive"}
{"target": "C2CD2 (C2 calcium dependent domain containing 2)", "cell gain with vemurafenib": 0.47, "lactate per cell with vemurafenib": 1.12, "Outcome": "inactive"}
{"target": "LRRC24 (leucine rich repeat containing 24)", "cell gain with vemurafenib": 0.7, "lactate per cell with vemurafenib": 0.91, "Outcome": "inactive"}
{"target": "UPP2 (uridine phosphorylase 2)", "cell gain with vemurafenib": 1.08, "lactate per cell with vemurafenib": 0.78, "Outcome": "inactive"}
{"target": "KCNV1", "cell gain with vemurafenib": 0.39, "lactate per cell with vemurafenib": 0.69, "Outcome": "inactive"}
{"target": "RABEPK (Rab9 effector protein with kelch motifs)", "cell gain with vemurafenib": 0.38, "lactate per cell with vemurafenib": 1.04, "Outcome": "inactive"}
{"target": "SLC16A3", "cell gain with vemurafenib": 0.14, "lactate per cell with vemurafenib": 1.52, "Outcome": "inactive"}
{"target": "TMEM128 (transmembrane protein 128)", "cell gain with vemurafenib": -0.09, "lactate per cell with vemurafenib": 0.36, "Outcome": "active"}
{"target": "FBXO41 (F-box protein 41)", "cell gain with vemurafenib": 0.19, "lactate per cell with vemurafenib": 0.8, "Outcome": "inactive"}
{"target": "ATP13A2 (ATPase cation transporting 13A2)", "cell gain with vemurafenib": 0.73, "lactate per cell with vemurafenib": 1.11, "Outcome": "inactive"}

Part of the list above in another layout:
target	cell gain with vemurafenib	lactate per cell with vemurafenib	Outcome
ACTR6 (actin related protein 6)	0.62	0.94	inactive
UBP1 (upstream binding protein 1)	0.23	0.78	inactive
FAM167A (family with sequence similarity 167 member A)	0.6	1.37	inactive
CAMLG (calcium modulating ligand)	0.94	0.56	inactive
TICAM1 (TIR domain containing adaptor molecule 1)	1.1	0.92	inactive
